Measurements taken from the supplement of paper PMC4604168 (melanoma cell lines).
The list shows a part of the results. Many values rest on one well or one pass, so single values are uncertain.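 The apoptosis fraction was the count of cleaved-PARP antibody-stained nuclei relative to all DNA-stained nuclei, imaged in 1,536-well plates. Screening doses were set so most cells survived, and baseline and induced cleaved-PARP levels vary greatly across cell lines.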

What follows are molecules tested on SkMel28 (assay: cleaved PARP positive nuclei fraction relative to DMSO control; melanoma cells; higher = more apoptosis). Details: library dose: low library concentration; 72 h.

SMILES	cleaved PARP positive nuclei fraction [%]
O=C(Nc1cc(C(F)(F)F)cc(C(F)(F)F)c1)c1cc(Cl)ccc1O + Nc1ncn([C@H]2C[C@H](O)[C@@H](CO)O2)c(=O)n1 [decitabine] (first compound 0.016 µM, partner dose 0.1 µM)	38.4
CC[C@]1(O)C[C@H]2CN(CCc3c([nH]c4ccccc34)[C@@](C(=O)OC)(c3cc4c(cc3OC)N(C=O)[C@H]3[C@@](O)(C(=O)OC)[C@H](OC(C)=O)[C@]5(CC)C=CCN6CC[C@]43[C@@H]65)C2)C1 [vincristine] + Cn1c(Nc2ccc(C(F)(F)F)cc2)nc2cc(Oc3ccnc(-c4ncc(C(F)(F)F)[nH]4)c3)ccc21 [CHIR265] (first compound 0.0001 µM, partner dose 0.08 µM)	84.5
Cc1cc(Nc2cc(N3CCN(C)CC3)nc(Sc3ccc(NC(=O)C4CC4)cc3)n2)n[nH]1 [Tozasertib] + N#CC[C@H](C1CCCC1)n1cc(-c2ncnc3[nH]ccc23)cn1 [ruxolitinib] (first compound 0.006 µM, partner dose 1 µM)	121
CC[C@]1(O)C[C@H]2CN(CCc3c([nH]c4ccccc34)[C@@](C(=O)OC)(c3cc4c(cc3OC)N(C=O)[C@H]3[C@@](O)(C(=O)OC)[C@H](OC(C)=O)[C@]5(CC)C=CCN6CC[C@]43[C@@H]65)C2)C1 [vincristine] + C=C(c1ccc(C(=O)O)cc1)c1cc2c(cc1C)C(C)(C)CCC2(C)C [Bexarotene] (first compound 0.0001 µM, partner dose 2 µM)	111
